These are yes or no findings as the source states them, for the method shown.
Biological target: Toll/Interleukin-1 receptor (TIR, AA 691–837) domain of TLR5 (UniProt O60602)
Experiment: two-hybrid; yeast expressing pB42AD-TIR-TLR5 with pLexA-Nox C-terminal regions; after selection for Trp+ and His+, Leu-dependent growth and β-galactosidase activity (X-gal) in SD/galactose/raffinose medium

Amino acid sequences for entries named in this document (tags omitted). A change or cut given only in a name is not applied to a line headed by its entry. Residues count along the entry.
UniProt O60602, residues 691-837: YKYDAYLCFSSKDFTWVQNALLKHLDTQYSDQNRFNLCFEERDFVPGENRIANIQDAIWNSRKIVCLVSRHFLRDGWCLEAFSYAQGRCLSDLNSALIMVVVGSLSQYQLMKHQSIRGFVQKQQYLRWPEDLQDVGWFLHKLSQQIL
UniProt Q96PH1: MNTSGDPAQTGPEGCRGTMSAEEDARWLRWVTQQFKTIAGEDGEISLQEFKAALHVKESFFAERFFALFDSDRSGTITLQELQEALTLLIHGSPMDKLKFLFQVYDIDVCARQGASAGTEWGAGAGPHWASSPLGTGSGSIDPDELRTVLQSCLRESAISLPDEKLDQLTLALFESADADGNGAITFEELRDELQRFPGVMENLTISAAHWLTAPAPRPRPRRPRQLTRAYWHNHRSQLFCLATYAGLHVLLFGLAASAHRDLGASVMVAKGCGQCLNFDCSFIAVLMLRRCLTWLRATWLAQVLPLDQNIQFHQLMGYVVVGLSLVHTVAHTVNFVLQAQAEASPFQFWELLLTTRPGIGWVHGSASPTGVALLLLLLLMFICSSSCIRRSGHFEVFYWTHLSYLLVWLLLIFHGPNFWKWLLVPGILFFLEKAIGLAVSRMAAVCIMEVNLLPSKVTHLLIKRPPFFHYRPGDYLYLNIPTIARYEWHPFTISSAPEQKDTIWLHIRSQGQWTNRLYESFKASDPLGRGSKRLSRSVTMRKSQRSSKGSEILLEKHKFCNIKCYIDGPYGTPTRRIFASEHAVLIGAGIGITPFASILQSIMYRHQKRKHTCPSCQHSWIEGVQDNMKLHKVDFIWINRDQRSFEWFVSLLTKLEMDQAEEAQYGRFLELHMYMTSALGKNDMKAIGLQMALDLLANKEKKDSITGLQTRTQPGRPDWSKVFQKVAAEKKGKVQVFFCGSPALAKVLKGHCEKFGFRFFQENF

With “Nox5 COOH-terminal region (AA 395–720) (from UniProt Q96PH1) (domain or fragment)” the binding was “no binding”.

Reference: PMC4857127
